± gives the uncertainty stated by the source. Many of these values have a large error.
Test: self-splicing fitness, log relative to wild type (ln ratio); higher = more splicing; Tetrahymena group I intron in knt gene, E. coli kanamycin selection, DiMSum; sequences stand for … in CUCUCU…GGAGGGAAAAGUUAUCAGGCAUGCACCUGGUAGCUAGUCUUUAAACCAAUAGAUUGCAUCGGUUUAAAAGGCAAGACCGUCAAAUUGCGGGAAAGGGGUCAACAGCCGUUCAGUACCAAGUCUCAGGGGAAACUUUGAGAUGGCCUUGCAAAGGGUAUGGUAAUAAGCUGACGGACAUGGUCCUAACCACGCAGCCAAGUCCUAAGUCAACAGAUCUUCUGUUGAUAUGGAUGCAGUUCACAGACUAAAUGUCGGUCGGGGAAGAUGUAUUCUUCUCAUAAGAUAUAGUCGGACCUCUCCUUAAUGGGAGCUAGCGGAUGAAGUGAUGCAACACUGGAGCCGCUGGGAACUAAUUUGUAUGCGAAAGUAUAUUGAUUAGUUUUGGAGUACUCGUGGUCG
Outline: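 Pooled colonies went to amplicon sequencing on an Illumina HiSeq 2500 after six replicate transformations. The plates were LB agar with 100 μg/mL carbenicillin, 50 μM IPTG and 0.2% rhamnose, with or without 25 μg/mL kanamycin, incubated overnight at 37°C or 30°C. The E. coli BL21(DE3) library had all eight P1ex-region intron nucleotides randomised, the intron placed in the knt kanamycin-resistance gene on pET-22b(+). DiMSum fitness is the error-weighted combination of replicate fold changes, kanamycin against none, normalised to wild type.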

| Sequence | self-splicing fitness (ln) (30 °C) | self-splicing fitness (ln) (37 °C) |
| --- | --- | --- |
| CCCAAGCAAUAUUACGGAGA | -4.12 ± 0.59 |  |
| AGCCAGCAAUAUUACGAGCC | -4.27 ± 0.6 |  |
| GCUCAGCAAUAUUACGAUGG | -1.05 ± 0.11 | 0.368 ± 0.13 |
| GUCGAGCAAUAUUACGGCUU | -2.87 ± 0.53 |  |
| UCGGAGCAAUAUUACGUGAU | -3.75 ± 0.59 |  |
| GCAAAGCAAUAUUACGUGAU | -0.863 ± 0.053 | -0.973 ± 0.075 |
| UAGGAGCAAUAUUACGGAGA | -4.01 ± 0.59 |  |
| GGACAGCAAUAUUACGUAUC | -0.918 ± 0.093 | -0.855 ± 0.11 |
| UAGUAGCAAUAUUACGGCAC | -3.9 ± 1 | -2.4 ± 0.77 |
| UUCGAGCAAUAUUACGAGAA | -2.68 ± 0.65 |  |
| CAAUAGCAAUAUUACGGACC | -3.88 ± 1.1 |  |
| UCGGAGCAAUAUUACGUGGA | -1.28 ± 0.2 | -1.48 ± 0.18 |
| GAAGAGCAAUAUUACGCAAA | -3.66 ± 1 |  |
| UCGGAGCAAUAUUACGAACU | -3.19 ± 1.2 |  |
| GAGUAGCAAUAUUACGCAAU | -4.22 ± 0.59 |  |
| AGGAAGCAAUAUUACGGGUU | -3.14 ± 0.15 | -1.96 ± 0.15 |
| GAUGAGCAAUAUUACGAUCC | -2.02 ± 0.87 | -1.28 ± 0.56 |
| GGGCAGCAAUAUUACGGCUC | -1.96 ± 0.52 | -0.254 ± 0.53 |
| UCGCAGCAAUAUUACGACCC |  | -1.76 ± 0.86 |
| AUUGAGCAAUAUUACGCAUC | -3.86 ± 0.51 | -2.57 ± 0.62 |
| CGGGAGCAAUAUUACGACUC | -2.66 ± 1.1 |  |
| GACGAGCAAUAUUACGAACG |  | -1.03 ± 0.93 |
| UUAGAGCAAUAUUACGGUUC |  | -1.19 ± 0.64 |

| Sequence | self-splicing fitness (ln) (30 °C) | self-splicing fitness (ln) (37 °C) |
| --- | --- | --- |
| GUUCAGCAAUAUUACGUCCC | -0.868 ± 1.4 |  |
| CUAUAGCAAUAUUACGCCUA | -1.39 ± 0.63 | -2.19 ± 0.55 |
| UCUAAGCAAUAUUACGCCGA | -1.12 ± 0.19 | -0.156 ± 0.2 |
| GCAGAGCAAUAUUACGUCCC | -1.86 ± 0.65 |  |
| UCAAAGCAAUAUUACGGAGC | -3.72 ± 0.52 |  |
| CCGUAGCAAUAUUACGAUAC |  | -4.52 ± 1 |
| CAGGAGCAAUAUUACGAAUC | -4.11 ± 0.75 | -2.9 ± 0.61 |
| GGCGAGCAAUAUUACGGAUA | -3.69 ± 0.52 |  |
| UCGGAGCAAUAUUACGGAGU | -4.04 ± 1.1 | -2.44 ± 0.78 |
| UAGGAGCAAUAUUACGCGGG | -4.56 ± 0.51 |  |
| GCGUAGCAAUAUUACGACCC | -1.55 ± 1.2 | 1.3 ± 1.1 |
| CGCCAGCAAUAUUACGCCCC | -1.5 ± 0.62 | -1.11 ± 0.75 |
| GGGGAGCAAUAUUACGCAUC | -2.11 ± 0.59 | -1.81 ± 0.59 |
| UUCGAGCAAUAUUACGCCAC | -2.2 ± 0.84 |  |
| CAUGAGCAAUAUUACGCGAA | -3.03 ± 0.17 | -1.57 ± 0.15 |
| GGAGAGCAAUAUUACGAUUA | -3.87 ± 0.74 |  |
| UUUGAGCAAUAUUACGACAC | -2.21 ± 0.79 | -1.47 ± 0.83 |
| UCUUAGCAAUAUUACGACUA | -3.03 ± 0.78 |  |
| UCGUAGCAAUAUUACGGAAC | -3.73 ± 0.52 | -1.22 ± 0.51 |
| UCGGAGCAAUAUUACGAGCU |  | -2.2 ± 0.56 |
| AGCUAGCAAUAUUACGACCU | 0.703 ± 0.17 | -0.166 ± 0.18 |
| GGGGAGCAAUAUUACGGUAU | -2.97 ± 0.75 |  |
| UGAGAGCAAUAUUACGCGGU | -3.43 ± 1 | -0.929 ± 0.39 |

Reformatted: entries from further up
Sequence	self-splicing fitness (ln) (30 °C)	self-splicing fitness (ln) (37 °C)
UCUAAGCAAUAUUACGCCGA	-1.12 ± 0.19	-0.156 ± 0.2
GCAGAGCAAUAUUACGUCCC	-1.86 ± 0.65	
UCAAAGCAAUAUUACGGAGC	-3.72 ± 0.52	
CCGUAGCAAUAUUACGAUAC		-4.52 ± 1
CAGGAGCAAUAUUACGAAUC	-4.11 ± 0.75	-2.9 ± 0.61
GGCGAGCAAUAUUACGGAUA	-3.69 ± 0.52	
UCGGAGCAAUAUUACGGAGU	-4.04 ± 1.1	-2.44 ± 0.78
UAGGAGCAAUAUUACGCGGG	-4.56 ± 0.51	
GCGUAGCAAUAUUACGACCC	-1.55 ± 1.2	1.3 ± 1.1
CGCCAGCAAUAUUACGCCCC	-1.5 ± 0.62	-1.11 ± 0.75
GGGGAGCAAUAUUACGCAUC	-2.11 ± 0.59	-1.81 ± 0.59
UUCGAGCAAUAUUACGCCAC	-2.2 ± 0.84	
CAUGAGCAAUAUUACGCGAA	-3.03 ± 0.17	-1.57 ± 0.15
GGAGAGCAAUAUUACGAUUA	-3.87 ± 0.74	
UUUGAGCAAUAUUACGACAC	-2.21 ± 0.79	-1.47 ± 0.83
UCUUAGCAAUAUUACGACUA	-3.03 ± 0.78	
UCGUAGCAAUAUUACGGAAC	-3.73 ± 0.52	-1.22 ± 0.51
UCGGAGCAAUAUUACGAGCU		-2.2 ± 0.56
AGCUAGCAAUAUUACGACCU	0.703 ± 0.17	-0.166 ± 0.18

More records.

| Sequence | self-splicing fitness (ln) (30 °C) | self-splicing fitness (ln) (37 °C) |
| --- | --- | --- |
| GAAUAGCAAUAUUACGCCAU | -3.06 ± 0.56 |  |
| UACUAGCAAUAUUACGAAAG | -2.94 ± 0.11 | -1.93 ± 0.13 |
| UGGGAGCAAUAUUACGGUGC | -3.7 ± 1.1 |  |
| CGGCAGCAAUAUUACGACUC | -0.739 ± 0.097 | -0.759 ± 0.1 |
| GUUGAGCAAUAUUACGGAAG | -3.26 ± 0.52 | -3.64 ± 0.73 |
| UAUGAGCAAUAUUACGGGGC | -3 ± 0.5 | -2.47 ± 0.77 |
| GCUGAGCAAUAUUACGGCCC | -1.27 ± 1.4 | -2.32 ± 0.35 |
| UGCGAGCAAUAUUACGGUCC | -3.19 ± 0.82 | -1.21 ± 0.62 |
| CUGAAGCAAUAUUACGCAAA |  | -1.33 ± 1.2 |
| UGUUAGCAAUAUUACGACGU | -0.716 ± 0.11 | -1.37 ± 0.1 |
| ACCUAGCAAUAUUACGCGCG | -0.971 ± 0.13 | 0.377 ± 0.13 |
| CGCGAGCAAUAUUACGACGA | -3.08 ± 0.76 |  |
| ACCGAGCAAUAUUACGCGGC |  | -2.77 ± 1.1 |
| AGGCAGCAAUAUUACGGGGA | -3.6 ± 0.53 |  |
| GAUGAGCAAUAUUACGACGG | -3.56 ± 0.53 | -1.39 ± 0.63 |
| AGGGAGCAAUAUUACGUAUC |  | -2 ± 0.52 |
| UAUGAGCAAUAUUACGGCUU | -3.3 ± 0.5 |  |
| CGGAAGCAAUAUUACGCUCC | -2.01 ± 0.69 | -2.3 ± 0.77 |
| CUCUAGCAAUAUUACGCCAC | -2.66 ± 0.28 | -3.69 ± 1 |
| CGCGAGCAAUAUUACGGCCA | -3.03 ± 0.62 |  |
| GUUUAGCAAUAUUACGAUAA | -1.52 ± 0.51 | -0.197 ± 0.53 |
| GCAUAGCAAUAUUACGAUGC |  | -3.19 ± 0.52 |
| CUUAAGCAAUAUUACGCAGG | -3.05 ± 0.21 | -2.96 ± 0.32 |

A portion from further up, as a working copy:

| Sequence | self-splicing fitness (ln) (30 °C) | self-splicing fitness (ln) (37 °C) |
| --- | --- | --- |
| ACCUAGCAAUAUUACGCGCG | -0.971 ± 0.13 | 0.377 ± 0.13 |
| CGCGAGCAAUAUUACGACGA | -3.08 ± 0.76 |  |

Continued.

| Sequence | self-splicing fitness (ln) (30 °C) | self-splicing fitness (ln) (37 °C) |
| --- | --- | --- |
| CUUUAGCAAUAUUACGCGAC | -2.63 ± 0.51 | -2.42 ± 0.62 |
| GCUGAGCAAUAUUACGGCGG |  | -2.26 ± 0.63 |
| AUCGAGCAAUAUUACGAUGA | -3.37 ± 0.25 | -1.86 ± 0.16 |
| UCGUAGCAAUAUUACGCAGA |  | -1.79 ± 0.51 |
| GGCUAGCAAUAUUACGGCUC |  | -1 ± 0.65 |
| GCGAAGCAAUAUUACGCCAG |  | -1.93 ± 0.59 |
| AGUCAGCAAUAUUACGGCCC | -0.436 ± 0.12 | -0.0813 ± 0.18 |
| UCCUAGCAAUAUUACGAAAG |  | -3.53 ± 0.6 |
| AGCGAGCAAUAUUACGCCGC | -3.38 ± 0.5 | -2.59 ± 0.56 |
| UCAAAGCAAUAUUACGAUGU | -1.09 ± 0.074 | -0.341 ± 0.081 |
| CGCGAGCAAUAUUACGCUGC |  | -3.8 ± 0.59 |
| GUAUAGCAAUAUUACGGCCC | -0.402 ± 0.67 |  |
| UUCUAGCAAUAUUACGCGCC | -3.48 ± 1.1 |  |
| AACUAGCAAUAUUACGACCU | -0.168 ± 0.083 | 0.541 ± 0.11 |
| CUGAAGCAAUAUUACGGCGC | -4.98 ± 1 | -3.33 ± 0.6 |
| UCGAAGCAAUAUUACGCGAU | -3.31 ± 0.32 | -3.23 ± 0.73 |
| UGAUAGCAAUAUUACGUAGC | -2.92 ± 0.55 | -0.141 ± 0.6 |
| UGGUAGCAAUAUUACGCCAC | -2.68 ± 0.62 | -2.63 ± 1.1 |
| AGCGAGCAAUAUUACGGGAC | -4.75 ± 0.72 |  |
| CCGUAGCAAUAUUACGAGUC |  | -3.81 ± 0.51 |
| CUCUAGCAAUAUUACGUACC | -3.67 ± 0.6 | -3.88 ± 0.72 |
| GGGAAGCAAUAUUACGUGUA | -1.96 ± 0.14 | -0.669 ± 0.11 |
